Experimental data published in the supplement of paper PMC10849652.
This is one part of the list.

Chains of the proteins cited; added tags and fusions are not shown. Lines headed by an entry give the natural chain unless they say otherwise; changes in a name come on top.
UniProt Q6I9Y2: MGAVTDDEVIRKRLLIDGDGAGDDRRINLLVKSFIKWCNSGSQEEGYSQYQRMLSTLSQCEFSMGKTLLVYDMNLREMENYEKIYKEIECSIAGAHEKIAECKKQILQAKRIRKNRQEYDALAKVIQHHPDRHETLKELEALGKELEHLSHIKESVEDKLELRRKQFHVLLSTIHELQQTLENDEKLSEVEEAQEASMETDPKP
UniProt P52888, whole entry, looked up: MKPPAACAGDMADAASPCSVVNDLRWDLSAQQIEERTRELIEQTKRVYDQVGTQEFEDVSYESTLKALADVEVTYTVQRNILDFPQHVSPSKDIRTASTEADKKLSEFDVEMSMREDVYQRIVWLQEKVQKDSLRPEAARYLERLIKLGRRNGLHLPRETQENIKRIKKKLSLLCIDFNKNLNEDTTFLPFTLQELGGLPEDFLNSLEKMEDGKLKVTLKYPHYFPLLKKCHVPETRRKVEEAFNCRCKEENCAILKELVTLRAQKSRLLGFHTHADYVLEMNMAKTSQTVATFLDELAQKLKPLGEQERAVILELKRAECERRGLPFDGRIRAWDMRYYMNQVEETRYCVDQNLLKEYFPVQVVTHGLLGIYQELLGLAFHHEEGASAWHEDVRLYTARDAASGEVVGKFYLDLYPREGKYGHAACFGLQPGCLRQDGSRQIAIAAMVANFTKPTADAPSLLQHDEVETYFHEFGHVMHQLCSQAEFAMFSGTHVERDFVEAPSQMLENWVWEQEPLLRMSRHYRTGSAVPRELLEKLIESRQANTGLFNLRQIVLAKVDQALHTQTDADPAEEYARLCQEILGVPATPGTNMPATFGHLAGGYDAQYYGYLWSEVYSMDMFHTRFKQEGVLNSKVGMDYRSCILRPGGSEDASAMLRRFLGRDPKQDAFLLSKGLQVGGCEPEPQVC
UniProt Q9NXG2: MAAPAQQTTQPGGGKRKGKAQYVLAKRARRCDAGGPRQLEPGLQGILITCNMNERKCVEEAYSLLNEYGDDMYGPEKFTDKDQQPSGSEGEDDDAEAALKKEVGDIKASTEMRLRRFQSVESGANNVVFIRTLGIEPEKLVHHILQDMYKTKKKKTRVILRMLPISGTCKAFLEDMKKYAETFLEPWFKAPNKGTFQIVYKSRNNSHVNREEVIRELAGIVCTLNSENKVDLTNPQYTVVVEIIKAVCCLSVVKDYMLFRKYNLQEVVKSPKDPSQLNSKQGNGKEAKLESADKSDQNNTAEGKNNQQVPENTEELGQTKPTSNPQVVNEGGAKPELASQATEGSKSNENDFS
UniProt Q86XR7, whole entry, looked up: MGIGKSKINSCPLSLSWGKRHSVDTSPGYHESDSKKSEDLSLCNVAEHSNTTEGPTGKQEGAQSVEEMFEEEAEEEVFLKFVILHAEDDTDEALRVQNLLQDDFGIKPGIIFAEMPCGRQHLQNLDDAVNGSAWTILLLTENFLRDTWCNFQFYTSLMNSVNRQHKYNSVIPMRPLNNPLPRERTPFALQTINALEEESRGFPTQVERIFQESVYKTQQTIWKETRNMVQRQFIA
UniProt Q96CP7: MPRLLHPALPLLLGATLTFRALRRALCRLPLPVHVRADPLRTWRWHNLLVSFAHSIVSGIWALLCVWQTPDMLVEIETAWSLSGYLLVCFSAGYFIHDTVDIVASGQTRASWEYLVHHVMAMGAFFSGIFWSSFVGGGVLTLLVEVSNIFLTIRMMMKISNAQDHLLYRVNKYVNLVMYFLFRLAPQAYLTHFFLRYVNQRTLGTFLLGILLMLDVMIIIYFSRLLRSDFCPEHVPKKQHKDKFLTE
UniProt Q9UHD2: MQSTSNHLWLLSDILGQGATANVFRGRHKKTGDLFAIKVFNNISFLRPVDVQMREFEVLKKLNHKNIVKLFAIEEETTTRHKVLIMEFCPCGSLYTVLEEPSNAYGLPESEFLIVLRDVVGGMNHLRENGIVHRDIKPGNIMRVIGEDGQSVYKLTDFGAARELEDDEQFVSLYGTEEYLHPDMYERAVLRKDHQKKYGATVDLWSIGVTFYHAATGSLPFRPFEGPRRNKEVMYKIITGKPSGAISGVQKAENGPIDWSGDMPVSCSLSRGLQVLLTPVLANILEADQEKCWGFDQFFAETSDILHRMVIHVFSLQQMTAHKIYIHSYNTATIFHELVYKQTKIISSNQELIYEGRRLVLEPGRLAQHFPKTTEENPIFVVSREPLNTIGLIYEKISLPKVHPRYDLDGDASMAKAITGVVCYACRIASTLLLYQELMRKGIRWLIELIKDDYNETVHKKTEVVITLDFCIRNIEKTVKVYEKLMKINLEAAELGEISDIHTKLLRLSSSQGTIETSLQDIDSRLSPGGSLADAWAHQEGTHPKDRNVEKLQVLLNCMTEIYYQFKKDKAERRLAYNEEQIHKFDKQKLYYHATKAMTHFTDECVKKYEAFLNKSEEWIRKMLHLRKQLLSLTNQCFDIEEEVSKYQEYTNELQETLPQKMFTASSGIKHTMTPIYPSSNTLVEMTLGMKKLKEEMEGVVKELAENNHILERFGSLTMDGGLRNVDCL
UniProt Q13428: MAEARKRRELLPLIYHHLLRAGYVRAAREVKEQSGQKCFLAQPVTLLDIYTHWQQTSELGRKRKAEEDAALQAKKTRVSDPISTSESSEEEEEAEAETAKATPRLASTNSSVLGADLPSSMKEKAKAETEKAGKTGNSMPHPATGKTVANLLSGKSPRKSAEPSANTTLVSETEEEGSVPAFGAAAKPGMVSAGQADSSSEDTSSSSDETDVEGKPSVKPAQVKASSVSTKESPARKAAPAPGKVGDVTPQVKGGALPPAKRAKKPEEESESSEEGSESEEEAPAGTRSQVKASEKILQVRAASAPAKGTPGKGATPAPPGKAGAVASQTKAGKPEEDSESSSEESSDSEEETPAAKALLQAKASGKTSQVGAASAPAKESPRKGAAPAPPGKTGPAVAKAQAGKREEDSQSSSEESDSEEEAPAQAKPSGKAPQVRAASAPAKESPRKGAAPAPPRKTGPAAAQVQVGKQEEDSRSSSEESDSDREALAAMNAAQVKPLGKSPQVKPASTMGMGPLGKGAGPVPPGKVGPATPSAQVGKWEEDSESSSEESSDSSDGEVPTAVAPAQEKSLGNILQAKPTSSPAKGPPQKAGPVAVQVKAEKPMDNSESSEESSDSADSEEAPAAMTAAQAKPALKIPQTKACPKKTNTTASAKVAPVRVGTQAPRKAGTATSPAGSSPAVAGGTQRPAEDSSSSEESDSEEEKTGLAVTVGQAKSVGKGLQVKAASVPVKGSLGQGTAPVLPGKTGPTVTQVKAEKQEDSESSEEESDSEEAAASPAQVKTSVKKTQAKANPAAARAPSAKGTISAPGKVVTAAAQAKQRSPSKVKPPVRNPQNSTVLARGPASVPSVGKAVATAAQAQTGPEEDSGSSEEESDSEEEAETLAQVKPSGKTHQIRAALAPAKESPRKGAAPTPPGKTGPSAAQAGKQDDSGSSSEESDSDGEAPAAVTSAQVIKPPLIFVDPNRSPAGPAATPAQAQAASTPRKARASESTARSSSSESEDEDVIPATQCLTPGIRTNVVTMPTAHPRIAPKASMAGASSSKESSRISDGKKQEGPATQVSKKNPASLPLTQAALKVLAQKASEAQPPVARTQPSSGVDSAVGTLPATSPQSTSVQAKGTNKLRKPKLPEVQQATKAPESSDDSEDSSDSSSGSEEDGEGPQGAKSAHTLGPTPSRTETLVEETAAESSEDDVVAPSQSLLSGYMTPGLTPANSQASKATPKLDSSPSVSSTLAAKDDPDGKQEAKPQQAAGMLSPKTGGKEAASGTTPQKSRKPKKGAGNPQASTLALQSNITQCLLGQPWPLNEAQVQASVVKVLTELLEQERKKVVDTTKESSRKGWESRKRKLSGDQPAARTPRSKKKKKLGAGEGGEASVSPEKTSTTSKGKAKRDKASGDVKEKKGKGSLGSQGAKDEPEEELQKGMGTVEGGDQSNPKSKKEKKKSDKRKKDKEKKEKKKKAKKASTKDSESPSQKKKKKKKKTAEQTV
UniProt Q3LXA3: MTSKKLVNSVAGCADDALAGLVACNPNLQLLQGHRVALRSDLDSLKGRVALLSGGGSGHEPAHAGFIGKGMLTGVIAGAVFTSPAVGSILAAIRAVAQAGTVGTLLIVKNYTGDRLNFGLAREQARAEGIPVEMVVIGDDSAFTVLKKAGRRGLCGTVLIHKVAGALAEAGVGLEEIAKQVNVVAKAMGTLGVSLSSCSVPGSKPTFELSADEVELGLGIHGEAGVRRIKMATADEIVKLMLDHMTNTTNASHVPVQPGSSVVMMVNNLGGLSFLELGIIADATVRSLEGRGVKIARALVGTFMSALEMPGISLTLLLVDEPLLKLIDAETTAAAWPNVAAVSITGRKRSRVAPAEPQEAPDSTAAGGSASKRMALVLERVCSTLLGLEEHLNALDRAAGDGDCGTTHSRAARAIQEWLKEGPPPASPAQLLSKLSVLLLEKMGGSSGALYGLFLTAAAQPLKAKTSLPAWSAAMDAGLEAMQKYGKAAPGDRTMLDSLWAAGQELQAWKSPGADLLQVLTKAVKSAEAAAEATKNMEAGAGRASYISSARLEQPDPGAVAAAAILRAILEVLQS

What was measured:
Test in all cases: log2 fold change, soluble protein after heating vs DMSO (PISA); higher = thermal stabilisation; K562 cells, 10 uM, 30 min; active = over 0.2 and 3.5 SD of the protein, either way, in both replicates (recomputed)
[1] = compound: C1=CC=C(C=C1)[C@H](COC2=CC3=C(C=C2)NC(=O)N3)NC(=O)C4=CC=CN(C4=O)CC5=CC(=C(C=C5)F)F
Outline: (§1)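 K562 cells at 2×10^6 cells/mL were given 10 μM compound for 30 min. Aliquots then went through 3 min of heating across 48°C-58°C, were pooled, and were extracted in PBS with 0.5% NP-40 at 4°C, and the supernatant after 21,000xg for 90 min was quantified by TMTpro 16plex LC-MS/MS with channel sums equalised. Thermal stability relative to control samples, from duplicates, is given as log2 fold change.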

[2] = compound: CC1=C(SC2=C1C(=N[C@H](C3=NN=C(N32)C)CC(=O)N)C4=CC=C(C=C4)Cl)C
Outline: as §1

[3] = compound: CC1=C2C(=CC=C1)N=C(N(C2=O)C3=CC=CC=C3C)CN4C=NC5=C(N=CN=C54)N
Outline: as §1

[4] = compound: Cc1sc2c(c1C)C(c1ccc(Cl)cc1)=N[C@@H](CC(=O)OC(C)(C)C)c1nnc(C)n1-2
Outline: as §1

[5] = compound: c1ccc([C@@H]2C[C@H]2NC2CCNCC2)cc1
Outline: as §1

Measured: log2 fold change

THOC7 (UniProt Q6I9Y2)
inactive: [1] 0.041 | [2] 0.056 | [3] 0.039 | [4] 0.04 | [5] 0.022

THOP1 (UniProt P52888)
inactive: [1] 0.024 | [2] 0.022 | [3] 0.022 | [4] -0.032 | [5] 0.017

THUMPD1 (UniProt Q9NXG2)
inactive: [1] 0.009 | [2] -0.003 | [3] 0.03 | [4] -0.052 | [5] 0.024

TICAM2 isoform 2 (UniProt Q86XR7)
inactive: [1] -0.002 | [2] 0.048 | [3] -0.099 | [4] -0.038 | [5] -0.009

TLCD1 (UniProt Q96CP7)
inactive: [1] -0.036 | [2] 0.195 | [3] 0.024 | [4] -0.184 | [5] -0.078

TBK1 (UniProt Q9UHD2)
inactive: [1] -0.014 | [2] 0.007 | [3] 0.041 | [4] 0.011 | [5] -0.049

TK1 (UniProt K7ERV3)
inactive: [1] 0.038 | [2] 0.091 | [3] 0.083 | [4] 0.029 | [5] 0.015

TCOF1 isoform 4 (UniProt Q13428)
inactive: [1] 0.016 | [2] 0.006 | [3] 0.018 | [4] 0.033 | [5] 0.042

TKFC (UniProt Q3LXA3)
inactive: [1] 0.001 | [2] 0.058 | [3] -0.005 | [4] -0.014 | [5] 0.01
